Experimental data: PubChem BioAssay AID1487 (National Center for Advancing Translational Sciences (NCATS), 2009)
Values joined by “and” are separate entries in the source; they are usually repeats but may differ in a detail not shown here. Equal values may be shown once. The list shows a part of the results. Further columns of the screen follow, without active or inactive calls. Compounds called inactive in the main read-out are mostly missing here. Potencies come from curve fits of mixed quality, noted in brackets.

Assay: qHTS Assay for Modulators of Lamin A Splicing
Settings: HeLa LMNA splicing GFP/RFP minigene ratio, 48 h
How it was run: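 Read-out is the ratio of GFP to DsRed2 object intensity, acquired by 488 nm laser-scanning cytometry on HeLa lamin A-EGFP minigene reporter cells. Compound incubation 48 hrs at 37 °C in Opti-MEM with 2% FBS; DMSO 0.5% final.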

[1] = measured here: GFP splicing reporter channel
[2] = measured here: RFP viability control channel

Structure (SMILES) | AC50 [1] | AC50 [2]
Cc1ccc(N=CC=C2OC(C)(C)C(C)(C)O2)c(C)c1 | 12.6 µM [rising, single point] | 10 µM [rising, partial curve, poor fit]
COc1cc2c(cc1OC)C(c1ccc(-c3ccccc3Cl)o1)=NCC2 | – | 22.4 µM [rising, single point]
CN(C)S(=O)(=O)c1ccc(NC(=O)/C=C/c2ccccc2Cl)cc1 | 11.2 µM [rising, single point] | 11.2 µM [rising, partial curve, poor fit]
CCC(C(=O)Nc1ccccc1OC)n1c(C(=O)OC)cc2ccsc21 (configuration not stated) | 0.178 µM [rising, full curve] | –
O=C(CN1CCOCC1)Nc1ccccc1 | 3.16 µM [falling, single point] | 3.16 µM [falling, single point]
O=C(Nc1ccc(N2CCN(C(=O)c3ccco3)CC2)cc1)c1cccnc1Cl | – | 0.0447 µM [falling, full curve, poor fit]
COc1ccc(C2C(C#N)=C(N)Oc3c2c(-c2ccccc2)nn3-c2ccccc2)c(OC)c1OC (configuration not stated) | – | 35.5 µM [rising, single point]
N#C/C(=C\c1ccc([N+](=O)[O-])o1)C(=O)Nc1ccc(F)cc1 | 35.5 µM [falling, partial curve] | 28.2 µM [falling, partial curve]
CCOc1ccc(CSCCNC(=S)Nc2ccccc2)cc1 | – | 14.1 µM [rising, single point]
O=c1[nH]ccc2c(O)cccc12 | 1.12 µM [falling, partial curve] | 31.6 µM [rising, single point]
C=CCn1c(=NC(=O)c2ccccc2[N+](=O)[O-])sc2cc(S(C)(=O)=O)ccc21 | – | 14.1 µM [rising, single point]
COc1cccc(NC(=O)c2oc3ccc(S(=O)(=O)N4CCC5(CC4)OCCO5)cc3c2C)c1 | 5.62 µM [falling, single point] | 7.94 µM [falling, single point]
Cc1ccccc1CSCc1ccc(C(=O)NCCc2ccccc2)o1 | 1.12 µM [falling, partial curve, poor fit] | 6.31 µM [falling, partial curve]
CCC(CO)NCc1ccccc1OC(C)C (configuration not stated) | 0.251 µM [rising, full curve, poor fit] | –
O=c1c(-c2ccccc2)nc2cncnc2n1Cc1ccccc1 | 0.282 µM [falling, full curve, poor fit] | 0.355 µM [falling, full curve, poor fit]
CCN(CCCCOC(=O)c1ccc(OC)c(OC)c1)C(C)Cc1ccc(OC)cc1 (configuration not stated) | 22.4 µM [falling, single point] | 0.501 µM [falling, partial curve, poor fit]
S=C(NCC1CCCO1)Nc1ccc(Cl)c(Cl)c1 (configuration not stated) | – | 11.2 µM [rising, partial curve, poor fit]
Cc1cccc(Cn2cnc3c(N)c(C)c(C)cc32)c1 | – | 35.5 µM [falling, single point]
Cc1cc(C)c2nc(NNC(=O)c3ccc(S(=O)(=O)N4CCCC(C)C4)cc3)sc2c1 (configuration not stated) | 31.6 µM [falling, single point] | 14.1 µM [rising, single point]
CC(=O)Nc1ccc(Nc2ccc(S(=O)(=O)C(F)(F)F)cc2[N+](=O)[O-])cc1 | – | 20 µM [rising, single point]
CCSc1nnc(NC(=O)C2CCN(S(=O)(=O)c3cc(C(F)(F)F)ccc3Cl)CC2)s1 | 20 µM [rising, partial curve, poor fit] | 22.4 µM [rising, partial curve]
O=C(NCC(c1ccco1)S(=O)(=O)c1cccs1)c1ccc(C(F)(F)F)cc1 (configuration not stated) | 0.501 µM [rising, full curve, poor fit] | –
S=C(NCc1ccco1)Nc1ccc(N2CCOCC2)cc1 | 4.47 µM [falling, partial curve, poor fit] | –
COC(=O)c1sc2ccccc2c1NC(=O)c1coc2ccccc2c1=O | – | 0.501 µM [rising, full curve, poor fit]
Cc1[nH]c2ccccc2c1/C=N/NC(=S)NC(C)C | – | 14.1 µM [rising, single point]
Cc1ccc(NC(=S)N(CCCN2CCOCC2)Cc2ccccn2)cc1Cl | 15.8 µM [rising, single point] | 35.5 µM [rising, single point]
N/C(=N\OC(=O)/C=C/c1ccccc1Cl)c1ccccn1 | 5.62 µM [rising, partial curve, poor fit] | 5.62 µM [rising, single point]

Structure (SMILES) | AC50 [1] | AC50 [2]
O=C(Nc1ccc(F)cc1)C1C(c2ccccc2)C1(Cl)Cl (configuration not stated) | 20 µM [rising, single point] | 22.4 µM [rising, single point]
O=C(Nc1nccs1)c1cc(S(=O)(=O)N2CCOCC2)c(Cl)cc1Cl | – | 31.6 µM [rising, single point]
N=c1c2c(n(Cc3ccc(F)cc3)c3c1CCC3)CCC2 | – | 1.58 µM [rising, full curve]
Cc1ccc(-c2csc3nc(CN(C)Cc4ccccc4)[nH]c(=O)c23)cc1 | – | 6.31 µM [rising, partial curve]
O=C(CCS(=O)(=O)c1ccccc1)Nc1nc2c(s1)CCCC2 | – | 5.62 µM [rising, single point]
O=C(CSc1nnc(-c2ccccc2)c(-c2ccccc2)n1)Nc1ncc(Cl)cc1Cl | – | 35.5 µM [rising, single point]
CCN(CC)CCOCCOC(=O)C1(c2ccccc2)CCCC1 | 355 nM [rising, single point] and 7.94 µM [rising, partial curve, poor fit] | 14.1 µM [falling, single point] and 11.2 µM [rising, partial curve, poor fit]
C=CCN1C(=O)/C(=c2\sc3nc(=O)c(Cc4ccccc4)nn3c2=O)c2ccccc21 | 12.6 µM [falling, single point] | 14.1 µM [falling, single point]
CCN(CCNS(=O)(=O)c1ccc2[nH]c(=O)sc2c1)c1ccccc1 | – | 17.8 µM [rising, partial curve]
CS(=O)(=O)Nc1ccc(C2=NN(C(=O)c3ccco3)C(c3cccc(F)c3)C2)cc1 (configuration not stated) | 0.0112 µM [rising, partial curve, poor fit] | –
O=C(Nc1ccccc1)N(C1=NCCC1)c1ccc(OC(F)F)cc1 | 14.1 µM [rising, single point] | –
COc1ccc(OCCn2c(=N)n(CCO)c3ccccc32)cc1 | 0.398 µM [rising, full curve, poor fit] | 0.224 µM [rising, full curve]
c1ccc(-c2nnc(N3CCOCC3)nc2-c2ccccc2)cc1 | 20 µM [rising, partial curve, poor fit] | 22.4 µM [rising, single point]
C[C@@H]1C[C@H]2[C@@H]3CCC4=CC(=O)C=C[C@]4(C)[C@@]3(F)[C@@H](O)C[C@]2(C)[C@H]1C(=O)CO | 0.0224 µM [falling, full curve, poor fit] | 0.00251 µM [falling, full curve, poor fit]
CCOC(=O)CN1C(=O)CCSc2ccc(Cl)cc21 | 11.2 µM [falling, partial curve] | 11.2 µM [falling, partial curve]
CCC(=O)C1=C(c2ccccc2)N(C(=O)CC)n2c(nnc2C2CCCCC2)S1 | – | 35.5 µM [rising, single point]
CNc1nc(SC)nc2ccccc12 | 15.8 µM [falling, partial curve, poor fit] | 15.8 µM [falling, partial curve]
Cc1ccc(NC(=O)Cn2nc(C)c(S(=O)(=O)N(C)C)c2C)cc1 | 4.47 µM [falling, single point] | –
COc1ccc(C(C)=O)cc1CSc1nc2cc(Cl)ccc2o1 | – | 31.6 µM [rising, single point]
O=C(Nc1ccccc1[N+](=O)[O-])c1csnn1 | 5.01 µM [falling, partial curve, poor fit] | –
COC(=O)c1c(-c2ccccc2)csc1NC(=O)C1CC=CCC1C(=O)O (configuration not stated) | – | 11.2 µM [rising, partial curve, poor fit]
CCOc1ccc(-n2c(SCC(=O)N3CCCc4ccccc43)nc3c([nH]c4ccccc43)c2=O)cc1 | 6.31 µM [falling, partial curve, poor fit] | –
CN(C)Cc1ccccc1Sc1ccccc1Br | 7.94 µM [rising, partial curve, poor fit] | 11.2 µM [rising, partial curve, poor fit]
CCCNC(=O)OCCC12CC3CC(CC(C3)C1)C2 | 22.4 µM [rising, single point] | –
CC(=O)C1=NN(c2ccccc2)C2(S1)S/C(=C\c1ccccc1)C(=O)N2c1ccccc1 (configuration not stated) | – | 11.2 µM [rising, partial curve]
CCOc1cc(/C=N/NC(=O)CSc2nncn2C)ccc1OCc1ccccc1 | 3.55 µM [rising, full curve, poor fit] | –
O=C(NCCOC(=O)c1ccc(Cl)c(S(=O)(=O)N2CCCCC2)c1)c1ccncc1 | 15.8 µM [rising, single point] | 15.8 µM [rising, single point]

Laid out differently: 11 of the compounds above.
Structure (SMILES)	AC50 [1]	AC50 [2]
S=C(NCC1CCCO1)Nc1ccc(Cl)c(Cl)c1 (configuration not stated)	–	11.2 µM [rising, partial curve, poor fit]
Cc1cccc(Cn2cnc3c(N)c(C)c(C)cc32)c1	–	35.5 µM [falling, single point]
Cc1cc(C)c2nc(NNC(=O)c3ccc(S(=O)(=O)N4CCCC(C)C4)cc3)sc2c1 (configuration not stated)	31.6 µM [falling, single point]	14.1 µM [rising, single point]
CC(=O)Nc1ccc(Nc2ccc(S(=O)(=O)C(F)(F)F)cc2[N+](=O)[O-])cc1	–	20 µM [rising, single point]
CCSc1nnc(NC(=O)C2CCN(S(=O)(=O)c3cc(C(F)(F)F)ccc3Cl)CC2)s1	20 µM [rising, partial curve, poor fit]	22.4 µM [rising, partial curve]
O=C(NCC(c1ccco1)S(=O)(=O)c1cccs1)c1ccc(C(F)(F)F)cc1 (configuration not stated)	0.501 µM [rising, full curve, poor fit]	–
S=C(NCc1ccco1)Nc1ccc(N2CCOCC2)cc1	4.47 µM [falling, partial curve, poor fit]	–
COC(=O)c1sc2ccccc2c1NC(=O)c1coc2ccccc2c1=O	–	0.501 µM [rising, full curve, poor fit]
Cc1[nH]c2ccccc2c1/C=N/NC(=S)NC(C)C	–	14.1 µM [rising, single point]
Cc1ccc(NC(=S)N(CCCN2CCOCC2)Cc2ccccn2)cc1Cl	15.8 µM [rising, single point]	35.5 µM [rising, single point]
N/C(=N\OC(=O)/C=C/c1ccccc1Cl)c1ccccn1	5.62 µM [rising, partial curve, poor fit]	5.62 µM [rising, single point]
